From the supplement of paper PMC10077471 come the findings set out here.

In all, about 1,900 compounds were measured (“excess over highest single agent (ExcessHSA) synergy score, 6x6 matrix”: median about -83, lowest 2% from about -370 on). Some of the results follow.

The subject of the assay is NCI-H446. Briefly: excess over highest single agent (ExcessHSA) synergy score, 6x6 matrix; higher = less synergy (more negative = stronger synergy). As to conditions: 72 h; CellTiter-Glo viability.
`NC[C@@H]1O[C@@H](O[C@H]2[C@@H](O)[C@H](O[C@@H]3[C@@H](O)[C@H](N)C[C@H](N)[C@H]3O[C@H]3O[C@H](CN)[C@@H](O)[C@H](O)[C@H]3N)O[C@@H]2CO)[C@H](N)[C@@H](O)[C@@H]1O` + Cc1sc2c(c1C)C(c1ccc(Cl)cc1)=N[C@@H](CC(=O)OC(C)(C)C)c1nnc(C)n1-2 [NCGC00250412-19]: the “excess over highest single agent” value was -25.8. For the molecule `C#CCC(Cc1cnc2nc(N)nc(N)c2n1)c1ccc(C(=O)N[C@@H](CCC(=O)O)C(=O)O)cc1` (some centres not stated) + Cc1sc2c(c1C)C(c1ccc(Cl)cc1)=N[C@@H](CC(=O)OC(C)(C)C)c1nnc(C)n1-2 [NCGC00250412-19], the “excess over highest single agent” value was -285.

For the molecule `O=C(C[S+]([O-])Cc1ccco1)NC/C=C\COc1cc(CN2CCCCC2)ccn1` (configuration not stated) + Cc1sc2c(c1C)C(c1ccc(Cl)cc1)=N[C@@H](CC(=O)OC(C)(C)C)c1nnc(C)n1-2 [NCGC00250412-19], the “excess over highest single agent” value is -37.8.

On to `Clc1ccc2ncc(-c3cccc(NC4CNC4)n3)n2c1` + Cc1sc2c(c1C)C(c1ccc(Cl)cc1)=N[C@@H](CC(=O)OC(C)(C)C)c1nnc(C)n1-2 [NCGC00250412-19], for which the “excess over highest single agent” value was -64.1. `C=C1C(=O)OC(CCCCCCCC)C1C(=O)O` (configuration not stated) + Cc1sc2c(c1C)C(c1ccc(Cl)cc1)=N[C@@H](CC(=O)OC(C)(C)C)c1nnc(C)n1-2 [NCGC00250412-19]: the “excess over highest single agent” value was -149. As for `CCN(CC)CCCC(C)Nc1nc(C)cc(Nc2ccc3nc(C)cc(N)c3c2)n1` (configuration not stated) + Cc1sc2c(c1C)C(c1ccc(Cl)cc1)=N[C@@H](CC(=O)OC(C)(C)C)c1nnc(C)n1-2 [NCGC00250412-19], the figure is -87.5. The figure for `O=C(c1ccccc1)c1ccc2n1CCC2C(=O)O` (configuration not stated) + Cc1sc2c(c1C)C(c1ccc(Cl)cc1)=N[C@@H](CC(=O)OC(C)(C)C)c1nnc(C)n1-2 [NCGC00250412-19] is -87.3; for `COc1c(N2CCNC(C)C2)c(F)cc2c(=O)c(C(=O)O)cn(C3CC3)c12` (configuration not stated) + Cc1sc2c(c1C)C(c1ccc(Cl)cc1)=N[C@@H](CC(=O)OC(C)(C)C)c1nnc(C)n1-2 [NCGC00250412-19] it is -35.2. As for `O=C1NC(=O)/C(=C/c2ccc3c(c2)OC(F)(F)O3)S1` + Cc1sc2c(c1C)C(c1ccc(Cl)cc1)=N[C@@H](CC(=O)OC(C)(C)C)c1nnc(C)n1-2 [NCGC00250412-19], the figure is 124. `CCN(CC)C(=O)c1ccc(C2=CC3(CCNCC3)Oc3cccc(O)c32)cc1` + Cc1sc2c(c1C)C(c1ccc(Cl)cc1)=N[C@@H](CC(=O)OC(C)(C)C)c1nnc(C)n1-2 [NCGC00250412-19]: the “excess over highest single agent” value stood at 66.6. The figure for `COc1cc([C@@H]2c3cc4c(cc3[C@@H](O[C@@H]3O[C@@H]5CO[C@@H](c6cccs6)O[C@H]5[C@H](O)[C@H]3O)[C@H]3COC(=O)[C@H]23)OCO4)cc(OC)c1O` + Cc1sc2c(c1C)C(c1ccc(Cl)cc1)=N[C@@H](CC(=O)OC(C)(C)C)c1nnc(C)n1-2 [NCGC00250412-19] is -144. The figure for `CCC(=O)N[C@H]1CC[C@H](C(=O)N(C)c2ccc(-c3nc4ccccc4o3)cc2)C1` + Cc1sc2c(c1C)C(c1ccc(Cl)cc1)=N[C@@H](CC(=O)OC(C)(C)C)c1nnc(C)n1-2 [NCGC00250412-19] is -57.

As for `Nc1ccc(C(=O)Nc2cccc(-c3nc(N4CCOCC4)c4oc5ncccc5c4n3)c2)cn1` + Cc1sc2c(c1C)C(c1ccc(Cl)cc1)=N[C@@H](CC(=O)OC(C)(C)C)c1nnc(C)n1-2 [NCGC00250412-19], the “excess over highest single agent” value worked out at 98.4. As for `CCN1CCC(n2cc(CNc3cc(Cl)c4ncc(C#N)c(Nc5ccc(F)c(Cl)c5)c4c3)nn2)CC1` + Cc1sc2c(c1C)C(c1ccc(Cl)cc1)=N[C@@H](CC(=O)OC(C)(C)C)c1nnc(C)n1-2 [NCGC00250412-19], the figure is 44.4. For `Nc1ccc(S(=O)(=O)Nc2ccccn2)cc1` + Cc1sc2c(c1C)C(c1ccc(Cl)cc1)=N[C@@H](CC(=O)OC(C)(C)C)c1nnc(C)n1-2 [NCGC00250412-19], the “excess over highest single agent” value was 279.

For the molecule `Cn1cc(-c2ccncc2)c(-c2ccc(OCc3ccc4ccccc4n3)cc2)n1` + Cc1sc2c(c1C)C(c1ccc(Cl)cc1)=N[C@@H](CC(=O)OC(C)(C)C)c1nnc(C)n1-2 [NCGC00250412-19], the “excess over highest single agent” value was -33.6.

Regarding `O=C(O)[C@H]1O[C@@H](Oc2cc3oc(-c4ccccc4)cc(=O)c3c(O)c2O)[C@H](O)[C@@H](O)[C@@H]1O` + Cc1sc2c(c1C)C(c1ccc(Cl)cc1)=N[C@@H](CC(=O)OC(C)(C)C)c1nnc(C)n1-2 [NCGC00250412-19], the “excess over highest single agent” value was -92.6.

`Cc1[nH]c2ccccc2c1CCNCc1ccc(/C=C/C(=O)NO)cc1` + Cc1sc2c(c1C)C(c1ccc(Cl)cc1)=N[C@@H](CC(=O)OC(C)(C)C)c1nnc(C)n1-2 [NCGC00250412-19]: the “excess over highest single agent” value was -210. As for `COc1ccnc(C[S+]([O-])c2nc3cc(OC(F)F)ccc3[nH]2)c1OC` (configuration not stated) + Cc1sc2c(c1C)C(c1ccc(Cl)cc1)=N[C@@H](CC(=O)OC(C)(C)C)c1nnc(C)n1-2 [NCGC00250412-19], the figure is 192; as for `Nc1ccn([C@@H]2O[C@H](CO)[C@@H](O)[C@@H]2O)c(=O)n1` + Cc1sc2c(c1C)C(c1ccc(Cl)cc1)=N[C@@H](CC(=O)OC(C)(C)C)c1nnc(C)n1-2 [NCGC00250412-19], -107. The figure for `CC(NCc1ccc2c(c1)nc(NC(=O)c1ccc(-c3cn[nH]c3)s1)n2CC(C)(C)O)C(C)(C)C` (configuration not stated) + Cc1sc2c(c1C)C(c1ccc(Cl)cc1)=N[C@@H](CC(=O)OC(C)(C)C)c1nnc(C)n1-2 [NCGC00250412-19] is -312. As to `c1cncc(CN2CCC(n3ncc4c(N5CCOCC5)nc(-c5ccc6[nH]ccc6c5)nc43)CC2)c1` + Cc1sc2c(c1C)C(c1ccc(Cl)cc1)=N[C@@H](CC(=O)OC(C)(C)C)c1nnc(C)n1-2 [NCGC00250412-19], the “excess over highest single agent” value is -140. For the molecule `Cn1cc(C2=C(c3c4n(c5ccccc35)CCC(CN)C4)C(=O)NC2=O)c2ccccc21` (configuration not stated) + Cc1sc2c(c1C)C(c1ccc(Cl)cc1)=N[C@@H](CC(=O)OC(C)(C)C)c1nnc(C)n1-2 [NCGC00250412-19], the “excess over highest single agent” value was -42.8. The figure for `CCC[C@@H](C=O)NC(=O)[C@H](CC(C)C)NC(=O)[C@H](CC(C)C)NC(=O)OCc1ccccc1` + Cc1sc2c(c1C)C(c1ccc(Cl)cc1)=N[C@@H](CC(=O)OC(C)(C)C)c1nnc(C)n1-2 [NCGC00250412-19] is -225. On to `Cc1nnc(C(C)C)n1[C@H]1C[C@H]2CC[C@@H](C1)N2CC[C@H](NC(=O)C1CCC(F)(F)CC1)c1ccccc1` + Cc1sc2c(c1C)C(c1ccc(Cl)cc1)=N[C@@H](CC(=O)OC(C)(C)C)c1nnc(C)n1-2 [NCGC00250412-19], for which the “excess over highest single agent” value was -88.4. The figure for `Cc1ccc2c(=O)c3cccc(CC(=O)O)c3oc2c1C` + Cc1sc2c(c1C)C(c1ccc(Cl)cc1)=N[C@@H](CC(=O)OC(C)(C)C)c1nnc(C)n1-2 [NCGC00250412-19] is -18.2. As for `C=C1/C(=C\C=C2/CCC[C@]3(C)[C@@H]([C@H](C)/C=C/[C@H](C)C(C)C)CC[C@@H]23)C[C@@H](O)C[C@@H]1O` + Cc1sc2c(c1C)C(c1ccc(Cl)cc1)=N[C@@H](CC(=O)OC(C)(C)C)c1nnc(C)n1-2 [NCGC00250412-19], the figure is 186; as for `Cc1nc(-c2ccc(OCC(C)C)c(C#N)c2)sc1C(=O)O` + Cc1sc2c(c1C)C(c1ccc(Cl)cc1)=N[C@@H](CC(=O)OC(C)(C)C)c1nnc(C)n1-2 [NCGC00250412-19], -14. The figure for `CC(C(=O)O)c1ccc2c(c1)CC(=O)c1ccccc1S2` (configuration not stated) + Cc1sc2c(c1C)C(c1ccc(Cl)cc1)=N[C@@H](CC(=O)OC(C)(C)C)c1nnc(C)n1-2 [NCGC00250412-19] is 146; for `Oc1cc2c(cc1O)[C@@H]1c3ccc(O)c(O)c3OC[C@]1(O)C2` + Cc1sc2c(c1C)C(c1ccc(Cl)cc1)=N[C@@H](CC(=O)OC(C)(C)C)c1nnc(C)n1-2 [NCGC00250412-19] it is -67.2; for `CC(=O)[C@H]1CC[C@H]2[C@@H]3CC=C4C[C@@H](O)CC[C@]4(C)[C@H]3CC[C@]12C` + Cc1sc2c(c1C)C(c1ccc(Cl)cc1)=N[C@@H](CC(=O)OC(C)(C)C)c1nnc(C)n1-2 [NCGC00250412-19] it is -78.5. `COc1ccc(CC2c3cc(OC)c(OC)cc3CC[N+]2(C)CCC(=O)OCCCCCOC(=O)CC[N+]2(C)CCc3cc(OC)c(OC)cc3C2Cc2ccc(OC)c(OC)c2)cc1OC` (configuration not stated) + Cc1sc2c(c1C)C(c1ccc(Cl)cc1)=N[C@@H](CC(=O)OC(C)(C)C)c1nnc(C)n1-2 [NCGC00250412-19]: the “excess over highest single agent” value was -227. On to `CN(C)c1ccc(C(=C2C=CC(=[N+](C)C)C=C2)c2ccc(N(C)C)cc2)cc1` + Cc1sc2c(c1C)C(c1ccc(Cl)cc1)=N[C@@H](CC(=O)OC(C)(C)C)c1nnc(C)n1-2 [NCGC00250412-19], for which the “excess over highest single agent” value is -106. The figure for `CCN1CCN(Cc2ccc(-c3cc4c(N[C@H](C)c5ccccc5)ncnc4[nH]3)cc2)CC1` + Cc1sc2c(c1C)C(c1ccc(Cl)cc1)=N[C@@H](CC(=O)OC(C)(C)C)c1nnc(C)n1-2 [NCGC00250412-19] is 27.6. The figure for `CCOC(=O)c1c(CSc2ccccc2)n(C)c2cc(Br)c(O)c(CN(C)C)c12` + Cc1sc2c(c1C)C(c1ccc(Cl)cc1)=N[C@@H](CC(=O)OC(C)(C)C)c1nnc(C)n1-2 [NCGC00250412-19] is -113; for `Cc1ccn(-c2ccc(-c3ncco3)cc2)c(=O)c1-c1ccc2nc(N)ncc2c1` + Cc1sc2c(c1C)C(c1ccc(Cl)cc1)=N[C@@H](CC(=O)OC(C)(C)C)c1nnc(C)n1-2 [NCGC00250412-19] it is -189; for `O=C1c2ccccc2-[n+]2ccc3c([nH]c4ccccc43)c21` + Cc1sc2c(c1C)C(c1ccc(Cl)cc1)=N[C@@H](CC(=O)OC(C)(C)C)c1nnc(C)n1-2 [NCGC00250412-19] it is -179.
